Experimental data: PubChem BioAssay AID652272 (Drosophila RNAi Screening Center, 2013)

Test: 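Genes whose knock-down decreases or increases Hedgehog reporter output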 (primary screen)
System: Drosophila clone 8 (Cl8) cells
Reagent: long dsRNA against Drosophila genes
Read-out: 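Plate reader light from a firefly reporter under a ptc promoter fragment that responds to Hedgehog, with Renilla light as transfection reference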
Scale: firefly Hh reporter signal: higher = more ptc reporter light; Renilla reference signal: higher = more Renilla control light
Rule for the call: 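Called a hit if the two-replicate mean z-score lies below -2 or above +3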
Calls: active = hit: reporter lowered or raised; inactive = not a hit
The screen tested about 21,000 reagents; this is an unselected part of those that have a named target and a result. In the full data, 503 (2.4%) were called active. 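Raw plate light values, not normalised; calls rest on replicate z-scores that were not deposited; hits include reporter decreases as well as increases.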 Entries without a mark were called inactive. Names joined by + are all predicted targets of the reagent. Reagent sequences are not shown. Not stated in the record: the amount of reagent, the time to read-out.

| Gene | amplicon | firefly Hh reporter signal, replicate 1 | firefly Hh reporter signal, replicate 2 | firefly Hh reporter signal, replicate 3 | Renilla reference signal, replicate 1 | Renilla reference signal, replicate 2 |
| --- | --- | --- | --- | --- | --- | --- |
| CG8814 | DRSC00707 | 98425 | 80018 | – | 4160 | 3899 |
| CG8564 | DRSC10997 | 1.34e5 | 60485 | – | 4603 | 2508 |
| CycC | DRSC16619 | 1.25e5 | 85880 | – | 6752 | 3789 |
| Ir76a | DRSC10987 | 89664 | 64484 | – | 3635 | 2919 |
| CG9593 | DRSC16508 | 86372 | 78679 | – | 2432 | 2082 |
| Tsp | DRSC02144 | 97312 | 86327 | – | 3570 | 3272 |
| Tsp | DRSC02145 | 81232 | 86466 | – | 2261 | 7804 |
| Mondo | DRSC02667 | 1.14e5 | 80184 | – | 4779 | 3372 |
| Mondo | DRSC02668 | 88765 | 49008 | – | 2365 | 4299 |
| CG14401 | DRSC02385 | 1.54e5 | 82416 | – | 4137 | 7241 |
| CG4866 | DRSC06899 | 75424 | 58528 | – | 2272 | 5093 |
| CG5853 | DRSC01103 | 5.22e5 | 1.96e5 | – | 27645 | 9305 |
| CG5853 | DRSC02906 | 1.11e5 | 60519 | – | 4528 | 2992 |
| sad | DRSC16630 | 91770 | 1.36e5 | – | 3429 | 3530 |
| CG31898 | DRSC01019 | 4.35e5 | 1.56e5 | – | 22016 | 6578 |
| CG9951 | DRSC11105 | 1.15e5 | 55778 | – | 4349 | 2240 |
| Hen1 | DRSC06139 | 91522 | 83863 | – | 3837 | 3270 |
| Hen1 | DRSC06140 | 74720 | 42314 | – | 2000 | 3621 |
| Su(dx) | DRSC00791 | 1.21e5 | 89313 | – | 4907 | 2936 |
| Tm1 | DRSC13082 | 38992 | 1.85e5 | – | 7241 | 4005 |
| Tm1 | DRSC13083 | 39350 | 5.81e5 | 2.91e5 | 7048 | 5313 |
| Tm1 | DRSC16886 | 97179 | 84208 | – | 3750 | 3401 |
| CG9004 | DRSC08617 | 88834 | 41604 | – | 2999 | 3208 |
| Grx5 | DRSC19593 | 99322 | 2.15e5 | – | 3949 | 9737 |
| Pi4KIIIalpha | DRSC18655 | 60086 | 1.84e5 | – | 1632 | 6293 |
| TrpRS | DRSC14097 | 84123 | 1.33e5 | – | 1243 | 3672 |
| CatB | DRSC03194 | 92742 | 1.04e5 | – | 3789 | 3819 |
| CG15876 | DRSC08484 | 46292 | 56421 | – | 4576 | 4309 |
| PCB | DRSC05939 | 68009 | 57799 | – | 2960 | 2256 |
| ttm2 | DRSC08268 | 1.01e5 | 45622 | – | 3307 | 3156 |
| CG12684 | DRSC17875 | 59245 | 2.41e5 | – | 2215 | 8663 |

The list goes on (8 carried over from the part before).
| Gene | amplicon | firefly Hh reporter signal, replicate 1 | firefly Hh reporter signal, replicate 2 | firefly Hh reporter signal, replicate 3 | Renilla reference signal, replicate 1 | Renilla reference signal, replicate 2 |
| --- | --- | --- | --- | --- | --- | --- |
| Grx5 | DRSC19593 | 99322 | 2.15e5 | – | 3949 | 9737 |
| Pi4KIIIalpha | DRSC18655 | 60086 | 1.84e5 | – | 1632 | 6293 |
| TrpRS | DRSC14097 | 84123 | 1.33e5 | – | 1243 | 3672 |
| CatB | DRSC03194 | 92742 | 1.04e5 | – | 3789 | 3819 |
| CG15876 | DRSC08484 | 46292 | 56421 | – | 4576 | 4309 |
| PCB | DRSC05939 | 68009 | 57799 | – | 2960 | 2256 |
| ttm2 | DRSC08268 | 1.01e5 | 45622 | – | 3307 | 3156 |
| CG12684 | DRSC17875 | 59245 | 2.41e5 | – | 2215 | 8663 |
| CG42376 + cin | DRSC18752 | 76886 | 65543 | – | 1853 | 2096 |
| CG9921 | DRSC20220 | 5.24e5 | 1.29e5 | – | 4040 | 4040 |
| CG15387 | DRSC00401 | 1.01e5 | 79152 | – | 2520 | 1812 |
| Hr51 | DRSC06627 | 1.29e5 | 99424 | – | 3333 | 5675 |
| cm + Inx7 | DRSC18753 | 75350 | 75034 | – | 1667 | 1712 |
| CG15209 | DRSC19655 | 66395 | 2.10e5 | – | 993 | 7997 |
| Gr22b | DRSC20911 | 4.52e5 | 2.78e5 | – | 26400 | 5897 |
| Nup58 | DRSC16235 | 5.75e5 | 97260 | – | 29276 | 2618 |
| CG4984 + CG4975 | DRSC06907 | 1.00e5 | 38560 | – | 2725 | 3127 |
| CG4984 + CG4975 | DRSC06908 | 1.21e5 | 1.07e5 | – | 5680 | 4756 |
| CG31321 | DRSC13028 | 49556 | 2.18e5 | – | 11281 | 4244 |
| CG6983 | DRSC10757 | 1.07e5 | 80796 | – | 4880 | 3301 |
| Gr93a | DRSC14593 | 7.84e5 | 1.63e5 | – | 48020 | 2720 |
| boil | DRSC17872 | 69943 | 1.90e5 | – | 1350 | 6765 |
| Cpr72Ec | DRSC10449 | 1.15e5 | 78041 | – | 4378 | 2680 |
| CG5493 + CG5327 | DRSC06938 | 1.38e5 | 70957 | – | 3388 | 5225 |
| CG34167 | DRSC01525 | 1.02e5 | 2.03e5 | – | 3276 | 8690 |
| eIF5 | DRSC20165 | 64103 | 65945 | – | 2284 | 2107 |
| tj | DRSC02011 | 64349 | 41827 | – | 1704 | 3904 |
| ro | DRSC17046 | 95859 | 58864 | – | 3475 | 1504 |
| CG7379 | DRSC16237 | 1.72e5 | 1.13e5 | – | 7216 | 4432 |
| HisRS | DRSC19986 | 80168 | 2.52e5 | – | 2581 | 9892 |
| sicily | DRSC19704 | 64994 | 2.73e5 | – | 1781 | 10073 |
| CG18530 | DRSC15341 | 1.08e5 | 1.51e5 | – | 3094 | 4090 |
| CG43187 | DRSC05607 | 1.95e5 | 3.46e5 | – | 5825 | 17380 |
| zfh1 | DRSC14014 | 5.82e5 | 2.72e5 | – | 28314 | 5452 |
| zfh1 | DRSC17098 | 1.13e5 (active) | 1.21e5 | – | 1667 | 2075 |
